No constants are given. Whether binding was seen depends on the method and setting. Binding seen in cells or lysates may run through a third protein. Some results given as binding are weak or reduced against the parent protein; the word gives no strength. Where a sequence is shown, tags or fusion partners need not be part of it.
Biological target: T1, Myc-Borealin, Q53HL2
T1 chain: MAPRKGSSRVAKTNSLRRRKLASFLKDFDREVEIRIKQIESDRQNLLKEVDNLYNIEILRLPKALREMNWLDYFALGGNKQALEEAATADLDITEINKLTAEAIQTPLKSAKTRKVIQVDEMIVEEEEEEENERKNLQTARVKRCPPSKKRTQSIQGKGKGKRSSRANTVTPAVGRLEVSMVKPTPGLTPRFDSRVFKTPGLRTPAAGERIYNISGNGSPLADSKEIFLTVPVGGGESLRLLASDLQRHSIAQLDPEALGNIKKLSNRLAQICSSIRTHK
Assay: co-IP; anti-myc antibody on protein G beads; lysate of mitotic HeLa Kyoto cells (RO3306 washout, shake-off) transfected with Myc-Borealin constructs; 50 mM Tris pH 7.4, 400 mM NaCl, 0.5% IGEPAL, 0.1% deoxycholate; blots for Survivin, INCENP, Aurora B
Details: remark: other sources report otherwise

B1: Aurora B kinase (endogenous, HeLa), Q96GD4 1-344 (enzyme)
chain: MAQKENSYPWPYGRQTAPSGLSTLPQRVLRKEPVTPSALVLMSRSNVQPTAAPGQKVMENSSGTPDILTRHFTIDDFEIGRPLGKGKFGNVYLAREKKSHFIVALKVLFKSQIEKEGVEHQLRREIEIQAHLHHPNILRLYNYFYDRRRIYLILEYAPRGELYKELQKSCTFDEQRTATIMEELADALMYCHGKKVIHRDIKPENLLLGLKGELKIADFGWSVHAPSLRRKTMCGTLDYLPPEMIEGRMHNEKVDLWCIGVLCYELLVGNPPFESASHNETYRRIVKVDLKFPASVPMGAQDLISKLLRHNPSERLPLAQVSAHPWVRANSRRVLPPSALQSVA
- binding: binds

— PMC6891087
